PubChem BioAssay AID1347426 (Functional Genomics Laboratory (NCATS/FGL), 2020)
About 1,400 (4.5%) of roughly 31,000 sequences were called active.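 The calls were made as follows: active = median seed-adjusted z-score above 1 or below -1; inactive = the rest.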 The list shows a part of the results.

Experiment: Novel Modifiers of Survival Motor Neuron (SMN) Protein: Gene Identification via Genome-wide siRNA Screen;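 also: luminescence tracks full-length SMN protein made from the SMN2 reporter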
Conditions: HEK293T SMN2-luciferase reporter, siRNA knockdown, 72 h; actives lie on both sides
Outline: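 Genome-wide siRNA screen (10418 genes, 3 siRNAs each, 1 pmol per well) by reverse transfection in HEK293T cells stably carrying an SMN2-luciferase reporter; luminescence after 72 hours, normalized to negative-control siRNA, log10-transformed, MAD-scored.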
With GCACAAUGUUAGAGGUGUUTT against PPIL3 the median seed-adjusted z-score was inactive: 0.282.
In the case of GCGGUUCUGGUAUAUCGAATT against LPGAT1, the median seed-adjusted z-score is reported as inactive: 0.625.
In the case of CCAUCGAUGUCAACUAUGATT against PARP1, the median seed-adjusted z-score is reported as inactive: -0.0913.
In the case of CAACAACGGCUUUUGGGAATT against DUSP21, the median seed-adjusted z-score is reported as inactive: -0.0724.
In the case of GAUCUGUCUUGAUAACGAUTT against CENPC1, the median seed-adjusted z-score is reported as inactive: 0.
For GCUUAUGAACCGUUACGUATT against RAB9B, the median seed-adjusted z-score was inactive: -0.0301.
With GGGCAGACAUAUACACGAATT against ADSL the median seed-adjusted z-score was inactive: 0.
With CAUUAAAGGUUUACCCAAUTT against IDH1 the median seed-adjusted z-score was inactive: 0.421.
With GUACCCUGGAGGAAAGCGATT against GNRH2 the median seed-adjusted z-score was active: 1.13.
With GGAAGACAAUUGCUAAGGUTT against TRO the median seed-adjusted z-score was active: 2.04.
In the case of CGUUAUCUGUGGGAGCGAUTT against GTF3C3, the median seed-adjusted z-score is reported as inactive: 0.21.
With CACUGGAUCUGAAGUAUGATT against IL28RA the median seed-adjusted z-score was inactive: 0.
With CCAUCAGUACAUAUCCGAATT against ABCA8 the median seed-adjusted z-score was inactive: -0.666.
With CCGGGAACGAAAUAAACUATT against FOSB the median seed-adjusted z-score was inactive: 0.266.
With AGACUCACCUAGAGCUAAATT against AIF1 the median seed-adjusted z-score was inactive: -0.0293.
With GCAAUGAAUUACGAAGGCATT against NPM1 the median seed-adjusted z-score was inactive: 0.141.
For CGAGAGUAAUUUGAAGAAUTT against SIGMAR1, the median seed-adjusted z-score was active: -1.4.
For GCCUAUGAGUACUUCACCATT against BAK1, the median seed-adjusted z-score was inactive: 0.0419.
For CCACAAAGACCGUCGCUUUTT against RHOBTB2, the median seed-adjusted z-score was inactive: -0.139.
In the case of GUCUAUGCCUUCAUGAUCATT against SLC45A3, the median seed-adjusted z-score is reported as inactive: -0.0257.
For CCAGCGAAACCUCACCUAATT against MYT1, the median seed-adjusted z-score was inactive: -0.292.
In the case of CCUCCCGAAUGGUUCAGAATT against MLLT1, the median seed-adjusted z-score is reported as inactive: -0.086.
For GAAUCCGAAGGGAAAGGAATT against FOS, the median seed-adjusted z-score was inactive: 0.343.
In the case of GACCUAAACUGCAAGGAGATT against SIPA1L3, the median seed-adjusted z-score is reported as inactive: 0.
For CGCAGUACAUUGACGGGCATT against CAMK2B, the median seed-adjusted z-score was inactive: 0.0305.
For AGUUUGACCUGUUUCCUAATT against DMRTA2, the median seed-adjusted z-score was inactive: 0.252.
In the case of GGAGAGUAUUGGAAGGACATT against PAAF1, the median seed-adjusted z-score is reported as inactive: -0.422.
With CGUGUUCAGUGGAAUCACATT against NPC1 the median seed-adjusted z-score was inactive: -0.195.
For CAACAGUGGUCCGAAAAGATT against SNX1, the median seed-adjusted z-score was inactive: 0.0261.
For GCAAGAUAUCAACCAUGUATT against 1-Mar, the median seed-adjusted z-score was inactive: 0.
